Laboratory results from PMC10298287.

T1: AtIDD10 (JACKDAW) (Arabidopsis) (UniProt Q700D2)
T1 sequence: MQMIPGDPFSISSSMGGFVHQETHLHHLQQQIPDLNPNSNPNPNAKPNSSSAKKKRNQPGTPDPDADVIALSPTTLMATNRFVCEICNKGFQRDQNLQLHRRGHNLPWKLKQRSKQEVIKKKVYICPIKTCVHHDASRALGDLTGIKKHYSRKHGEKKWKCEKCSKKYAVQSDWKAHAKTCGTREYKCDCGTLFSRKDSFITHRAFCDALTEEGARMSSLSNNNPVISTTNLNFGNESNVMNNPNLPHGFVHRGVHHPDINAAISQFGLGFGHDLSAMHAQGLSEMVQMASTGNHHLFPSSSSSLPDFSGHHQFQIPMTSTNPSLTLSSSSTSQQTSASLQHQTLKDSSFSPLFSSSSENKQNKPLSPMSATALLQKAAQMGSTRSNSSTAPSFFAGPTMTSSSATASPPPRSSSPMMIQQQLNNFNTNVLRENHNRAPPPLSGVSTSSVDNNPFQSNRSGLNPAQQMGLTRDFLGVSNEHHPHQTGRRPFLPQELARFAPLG


Columns and labels:
Assay in all cases: two-hybrid; IDD baits in pGBT9, GRAS preys in pGAD424, yeast strain PJ69-4A; serial dilutions spotted on -LW and -LWH, 3-amino-1,2,4-triazole added as needed; 3 days at 30 °C
[1] = target: T1, AtIDD10 (JACKDAW) (Arabidopsis)
[2] = target: PpIDD1 (P. patens)
[3] = target: PpIDD2 (P. patens)
[4] = target: PpIDD3 (P. patens)
[5] = target: PpIDD4 (P. patens)

| binding [1] | binding [2] | binding [3] | binding [4] | binding [5] | Molecule |
| --- | --- | --- | --- | --- | --- |
| no binding |  |  |  |  | PpDELLAb (P. patens) |
| binds |  |  |  |  | PpSHR2 (P. patens) |
| no binding |  |  |  |  | PpDELLAa (P. patens) |
|  | no binding | no binding | no binding | no binding | AtSHR (protein, UniProt Q9SZF7 1-531) MDTLFRLVSLQQQQQSDSIITNQSSLSRTSTTTTGSPQTAYHYNFPQNDVVEECFNFFMDEEDLSSSSSHHNHHNHNNPNTYYSPFTTPTQYHPATSSTPSSTAAAAALASPYSSSGHHNDPSAFSIPQTPPSFDFSANAKWADSVLLEAARAFSDKDTARAQQILWTLNELSSPYGDTEQKLASYFLQALFNRMTGSGERCYRTMVTAAATEKTCSFESTRKTVLKFQEVSPWATFGHVAANGAILEAVDGEAKIHIVDISSTFCTQWPTLLEALATRSDDTPHLRLTTVVVANKFVNDQTASHRMMKEIGNRMEKFARLMGVPFKFNIIHHVGDLSEFDLNELDVKPDEVLAINCVGAMHGIASRGSPRDAVISSFRRLRPRIVTVVEEEADLVGEEEGGFDDEFLRGFGECLRWFRVCFESWEESFPRTSNERLMLERAAGRAIVDLVACEPSDSTERRETARKWSRRMRNSGFGAVGYSDEVADDVRALLRRYKEGVWSMVQCPDAAGIFLCWRDQPVVWASAWRPT |

These are yes or no findings as the source states them, for the method shown. For some of these results: Binding calls can cover weak binding; strength is not graded here.
